Publication PMC12867140
Results are given in words; binding and its absence hold for the method and conditions named. Binding seen in cells or lysates may run through a third protein. Some entries that bind do so weakly or less than the wild type.

The chains behind the UniProt entries cited, without tags or fusion partners.
UniProt P01106: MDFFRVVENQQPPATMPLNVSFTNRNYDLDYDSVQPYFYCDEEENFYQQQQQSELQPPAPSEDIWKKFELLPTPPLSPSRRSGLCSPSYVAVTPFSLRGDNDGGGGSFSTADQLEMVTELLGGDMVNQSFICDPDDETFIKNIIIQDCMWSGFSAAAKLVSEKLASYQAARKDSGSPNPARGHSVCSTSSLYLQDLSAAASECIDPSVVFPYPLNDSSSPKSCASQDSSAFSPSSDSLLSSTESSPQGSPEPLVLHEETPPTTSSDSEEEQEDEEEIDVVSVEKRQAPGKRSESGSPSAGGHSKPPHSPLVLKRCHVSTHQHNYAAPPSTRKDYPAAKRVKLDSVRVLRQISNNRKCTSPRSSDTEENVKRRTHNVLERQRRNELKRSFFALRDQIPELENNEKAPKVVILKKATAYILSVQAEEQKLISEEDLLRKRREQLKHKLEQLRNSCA
UniProt P46934: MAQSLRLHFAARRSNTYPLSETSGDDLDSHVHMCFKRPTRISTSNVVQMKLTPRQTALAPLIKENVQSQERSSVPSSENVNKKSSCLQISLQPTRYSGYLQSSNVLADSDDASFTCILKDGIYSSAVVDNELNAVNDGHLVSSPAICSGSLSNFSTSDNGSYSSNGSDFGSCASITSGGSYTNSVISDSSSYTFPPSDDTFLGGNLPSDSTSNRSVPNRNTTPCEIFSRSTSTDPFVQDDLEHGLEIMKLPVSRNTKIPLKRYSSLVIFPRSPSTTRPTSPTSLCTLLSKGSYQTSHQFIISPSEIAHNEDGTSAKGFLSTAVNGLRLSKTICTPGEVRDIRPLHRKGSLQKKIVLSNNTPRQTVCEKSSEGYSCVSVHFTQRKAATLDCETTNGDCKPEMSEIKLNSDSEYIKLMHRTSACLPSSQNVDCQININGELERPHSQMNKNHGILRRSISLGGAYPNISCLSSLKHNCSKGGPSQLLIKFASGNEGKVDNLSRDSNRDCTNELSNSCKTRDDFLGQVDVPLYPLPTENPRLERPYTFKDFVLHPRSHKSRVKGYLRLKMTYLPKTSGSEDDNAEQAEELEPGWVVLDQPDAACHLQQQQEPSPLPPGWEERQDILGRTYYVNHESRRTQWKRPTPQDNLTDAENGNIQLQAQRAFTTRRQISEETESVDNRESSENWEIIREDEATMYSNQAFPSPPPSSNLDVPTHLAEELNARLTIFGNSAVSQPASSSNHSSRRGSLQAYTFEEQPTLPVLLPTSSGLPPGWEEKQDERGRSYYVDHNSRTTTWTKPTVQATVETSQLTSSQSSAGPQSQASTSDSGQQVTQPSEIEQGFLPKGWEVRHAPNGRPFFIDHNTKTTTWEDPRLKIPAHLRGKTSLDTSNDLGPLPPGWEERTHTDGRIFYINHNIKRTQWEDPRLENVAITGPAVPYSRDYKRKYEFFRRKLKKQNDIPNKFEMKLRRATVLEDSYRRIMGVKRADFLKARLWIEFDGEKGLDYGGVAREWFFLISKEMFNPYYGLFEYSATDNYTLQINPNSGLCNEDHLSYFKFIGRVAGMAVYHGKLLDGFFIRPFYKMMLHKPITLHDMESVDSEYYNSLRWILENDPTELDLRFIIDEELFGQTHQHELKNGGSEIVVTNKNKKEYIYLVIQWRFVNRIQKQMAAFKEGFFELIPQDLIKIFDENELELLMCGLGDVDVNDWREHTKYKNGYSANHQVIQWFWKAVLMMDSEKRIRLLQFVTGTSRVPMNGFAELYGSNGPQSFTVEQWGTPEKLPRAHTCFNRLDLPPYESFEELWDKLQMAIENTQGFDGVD

Target: c-Myc (human (endogenous in PANC-1 and AsPC-1)) (UniProt P01106)
Assay: co-IP; reciprocal co-IP of NEDD4 and c-Myc; endogenous co-IP in PANC-1 cells transfected with control or HDAC5 siRNAs

binding: binds
Substance: NEDD4 (from UniProt P46934 1-1319) (enzyme)
